Values quoted from earlier work as cited in patent US20070071679A1, “Methylamine risks and treatment of hyperactivity, depression, and alcoholism with epinephrine-N-quinolines” (priority 2005, published 2007).
At least one structure is not confirmed: it was looked up by name or label, or the drawing left a doubt.

Tested on: sleep-waking cycles of cats
Conditions: during 12 hours after i.p. administration

In the case of `CN(C)CCCC1(c2ccc(F)cc2)OCc2cc(C#N)ccc21` (centres unmarked) [Citalopram, citalopram], the “proportion of time cats are in REM sleep” value is given as 2% and the “proportion of time cats are in deep slow wave sleep” value is given as 50%.
